Measured values: patent US20140093888A1
No constants are given. Whether binding was seen depends on the method and setting. Some entries that bind do so weakly or less than the wild type. Sequences can lack the tags named with a protein.

Molecular target: recombinant colanic acid degrading enzyme (CAE), amino acids 107-790 with 6 histidines at the N-terminus (bacteriophage NST1)
Assay: analytical ultracentrifugation, self-association (homotrimer)

B1: recombinant colanic acid degrading enzyme (CAE), amino acids 107-790 with 6 histidines at the N-terminus (enzyme)
chain: MGHHHHHHLAPLDRAVRVPNSEVSINALPNVAGRRNKALGFDSNGQPFMIPLVDIPDSALAIALAMADGGKWIGTLGGGTFLDRQDTVCLSEFTNNTGYASVAAAVQACFDYAKANGKVVDARGWEGTVDSTVLMDGIEVVGGTWHGKADIRLLNSTFRNFVASTVRVAYWGGEVRIADYEFTSAPSNSKVTSILFQGNIAGGSYVIENGIHRNGKFGILQQGTGEAITNGVIRGITMMDMQGDGIEMNVINKHYDGGLLIENIFLENIDGTNAPIPLSNWGIGIGIAGQGPFGWDAAETQYAKNVTVRNVHAPRGVRQVVHFEVTRDSTCENVVANPDLSVSIGTGLTAAGVITYGCKRMTIDGVVGEPMNTGATSPNDIRIVMLEWGANQAGAGGTPGAACPSFDMTVRNVQTRTGRFYAGVGSDDDNTNTYHLENIHCYKMTLFGVATLLNMTNVTGVVFDAVGDDSSGGTSSNGLYPRKKTVLNMVNVNFYGPGMTEGALYSKARYSDISTLNSNVRAIPYTNIQGNVGVILSPVNRMYTLPNALATLDGNEFPTGKEFCEGTVLFKTDGSGGNFIVTRFGAYIPDDGNNFKVRAAAAGQTYLEQNLTPAGTQASTSWLYHKPISAGTRLNVPGAGPSGGTLTVTVVRAPYQVDNNIGNPVRIDITPAIVTAIPAGTQLAATYPVAYI
binding: binds
